{"sequences": {"note": "By UniProt entry, the sequences of proteins in these tests, tags left out. Residues count along the entry.", "UniProt Q62656, residues 25-2316": "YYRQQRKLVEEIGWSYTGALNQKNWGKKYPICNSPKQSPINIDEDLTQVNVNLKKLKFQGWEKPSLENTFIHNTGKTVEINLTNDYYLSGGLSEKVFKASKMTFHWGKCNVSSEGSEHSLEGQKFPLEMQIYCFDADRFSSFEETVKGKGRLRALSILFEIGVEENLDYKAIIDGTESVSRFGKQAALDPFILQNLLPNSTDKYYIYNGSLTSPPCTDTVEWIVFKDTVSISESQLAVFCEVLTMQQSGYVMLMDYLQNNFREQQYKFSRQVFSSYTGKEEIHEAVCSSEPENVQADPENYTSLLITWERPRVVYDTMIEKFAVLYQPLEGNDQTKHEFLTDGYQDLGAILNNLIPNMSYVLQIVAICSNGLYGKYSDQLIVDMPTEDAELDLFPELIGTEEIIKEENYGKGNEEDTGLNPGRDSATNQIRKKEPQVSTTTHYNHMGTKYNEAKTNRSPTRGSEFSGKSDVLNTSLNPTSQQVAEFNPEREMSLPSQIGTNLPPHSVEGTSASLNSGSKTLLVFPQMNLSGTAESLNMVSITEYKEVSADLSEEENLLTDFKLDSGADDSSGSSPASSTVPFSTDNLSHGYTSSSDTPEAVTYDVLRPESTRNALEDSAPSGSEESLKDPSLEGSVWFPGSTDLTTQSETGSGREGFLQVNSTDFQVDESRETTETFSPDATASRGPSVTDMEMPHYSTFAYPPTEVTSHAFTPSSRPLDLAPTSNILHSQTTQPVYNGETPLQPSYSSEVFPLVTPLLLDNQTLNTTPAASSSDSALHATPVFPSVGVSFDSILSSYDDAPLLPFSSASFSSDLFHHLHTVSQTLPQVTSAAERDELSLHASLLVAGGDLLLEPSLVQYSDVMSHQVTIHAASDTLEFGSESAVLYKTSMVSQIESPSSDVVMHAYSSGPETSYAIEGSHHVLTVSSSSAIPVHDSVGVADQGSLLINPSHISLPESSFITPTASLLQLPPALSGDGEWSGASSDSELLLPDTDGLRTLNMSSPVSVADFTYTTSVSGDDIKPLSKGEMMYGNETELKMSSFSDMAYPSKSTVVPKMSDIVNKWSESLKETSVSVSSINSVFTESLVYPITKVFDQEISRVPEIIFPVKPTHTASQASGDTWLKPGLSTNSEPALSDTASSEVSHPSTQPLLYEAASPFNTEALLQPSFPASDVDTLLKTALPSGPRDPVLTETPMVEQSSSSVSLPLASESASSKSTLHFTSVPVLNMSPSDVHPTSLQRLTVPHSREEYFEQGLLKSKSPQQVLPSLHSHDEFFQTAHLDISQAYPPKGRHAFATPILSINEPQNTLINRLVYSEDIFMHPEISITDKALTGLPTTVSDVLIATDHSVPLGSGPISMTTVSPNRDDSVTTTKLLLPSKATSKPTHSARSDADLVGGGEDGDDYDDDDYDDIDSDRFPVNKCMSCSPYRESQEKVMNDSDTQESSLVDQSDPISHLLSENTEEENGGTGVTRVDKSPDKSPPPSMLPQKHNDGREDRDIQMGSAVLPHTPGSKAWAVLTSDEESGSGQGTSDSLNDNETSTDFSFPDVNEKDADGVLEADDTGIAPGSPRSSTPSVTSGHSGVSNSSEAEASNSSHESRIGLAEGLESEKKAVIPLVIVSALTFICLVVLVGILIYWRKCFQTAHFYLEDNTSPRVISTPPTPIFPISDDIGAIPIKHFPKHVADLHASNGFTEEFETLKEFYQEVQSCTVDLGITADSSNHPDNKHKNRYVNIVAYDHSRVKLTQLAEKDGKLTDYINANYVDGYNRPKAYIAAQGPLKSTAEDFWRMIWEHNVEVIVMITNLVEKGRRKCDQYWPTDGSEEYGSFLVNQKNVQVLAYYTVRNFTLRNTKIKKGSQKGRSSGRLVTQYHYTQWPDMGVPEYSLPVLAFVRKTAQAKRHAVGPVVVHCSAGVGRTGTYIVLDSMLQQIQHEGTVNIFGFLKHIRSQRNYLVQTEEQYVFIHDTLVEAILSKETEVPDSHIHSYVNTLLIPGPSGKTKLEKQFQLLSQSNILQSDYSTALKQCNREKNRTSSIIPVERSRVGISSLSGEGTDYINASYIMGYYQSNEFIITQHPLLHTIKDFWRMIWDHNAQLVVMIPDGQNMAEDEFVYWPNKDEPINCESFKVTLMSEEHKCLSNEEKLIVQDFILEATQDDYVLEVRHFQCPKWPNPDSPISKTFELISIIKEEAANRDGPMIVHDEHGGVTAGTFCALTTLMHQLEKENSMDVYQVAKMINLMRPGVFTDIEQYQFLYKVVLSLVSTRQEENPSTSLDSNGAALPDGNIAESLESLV", "UniProt P23471, residues 25-2315": "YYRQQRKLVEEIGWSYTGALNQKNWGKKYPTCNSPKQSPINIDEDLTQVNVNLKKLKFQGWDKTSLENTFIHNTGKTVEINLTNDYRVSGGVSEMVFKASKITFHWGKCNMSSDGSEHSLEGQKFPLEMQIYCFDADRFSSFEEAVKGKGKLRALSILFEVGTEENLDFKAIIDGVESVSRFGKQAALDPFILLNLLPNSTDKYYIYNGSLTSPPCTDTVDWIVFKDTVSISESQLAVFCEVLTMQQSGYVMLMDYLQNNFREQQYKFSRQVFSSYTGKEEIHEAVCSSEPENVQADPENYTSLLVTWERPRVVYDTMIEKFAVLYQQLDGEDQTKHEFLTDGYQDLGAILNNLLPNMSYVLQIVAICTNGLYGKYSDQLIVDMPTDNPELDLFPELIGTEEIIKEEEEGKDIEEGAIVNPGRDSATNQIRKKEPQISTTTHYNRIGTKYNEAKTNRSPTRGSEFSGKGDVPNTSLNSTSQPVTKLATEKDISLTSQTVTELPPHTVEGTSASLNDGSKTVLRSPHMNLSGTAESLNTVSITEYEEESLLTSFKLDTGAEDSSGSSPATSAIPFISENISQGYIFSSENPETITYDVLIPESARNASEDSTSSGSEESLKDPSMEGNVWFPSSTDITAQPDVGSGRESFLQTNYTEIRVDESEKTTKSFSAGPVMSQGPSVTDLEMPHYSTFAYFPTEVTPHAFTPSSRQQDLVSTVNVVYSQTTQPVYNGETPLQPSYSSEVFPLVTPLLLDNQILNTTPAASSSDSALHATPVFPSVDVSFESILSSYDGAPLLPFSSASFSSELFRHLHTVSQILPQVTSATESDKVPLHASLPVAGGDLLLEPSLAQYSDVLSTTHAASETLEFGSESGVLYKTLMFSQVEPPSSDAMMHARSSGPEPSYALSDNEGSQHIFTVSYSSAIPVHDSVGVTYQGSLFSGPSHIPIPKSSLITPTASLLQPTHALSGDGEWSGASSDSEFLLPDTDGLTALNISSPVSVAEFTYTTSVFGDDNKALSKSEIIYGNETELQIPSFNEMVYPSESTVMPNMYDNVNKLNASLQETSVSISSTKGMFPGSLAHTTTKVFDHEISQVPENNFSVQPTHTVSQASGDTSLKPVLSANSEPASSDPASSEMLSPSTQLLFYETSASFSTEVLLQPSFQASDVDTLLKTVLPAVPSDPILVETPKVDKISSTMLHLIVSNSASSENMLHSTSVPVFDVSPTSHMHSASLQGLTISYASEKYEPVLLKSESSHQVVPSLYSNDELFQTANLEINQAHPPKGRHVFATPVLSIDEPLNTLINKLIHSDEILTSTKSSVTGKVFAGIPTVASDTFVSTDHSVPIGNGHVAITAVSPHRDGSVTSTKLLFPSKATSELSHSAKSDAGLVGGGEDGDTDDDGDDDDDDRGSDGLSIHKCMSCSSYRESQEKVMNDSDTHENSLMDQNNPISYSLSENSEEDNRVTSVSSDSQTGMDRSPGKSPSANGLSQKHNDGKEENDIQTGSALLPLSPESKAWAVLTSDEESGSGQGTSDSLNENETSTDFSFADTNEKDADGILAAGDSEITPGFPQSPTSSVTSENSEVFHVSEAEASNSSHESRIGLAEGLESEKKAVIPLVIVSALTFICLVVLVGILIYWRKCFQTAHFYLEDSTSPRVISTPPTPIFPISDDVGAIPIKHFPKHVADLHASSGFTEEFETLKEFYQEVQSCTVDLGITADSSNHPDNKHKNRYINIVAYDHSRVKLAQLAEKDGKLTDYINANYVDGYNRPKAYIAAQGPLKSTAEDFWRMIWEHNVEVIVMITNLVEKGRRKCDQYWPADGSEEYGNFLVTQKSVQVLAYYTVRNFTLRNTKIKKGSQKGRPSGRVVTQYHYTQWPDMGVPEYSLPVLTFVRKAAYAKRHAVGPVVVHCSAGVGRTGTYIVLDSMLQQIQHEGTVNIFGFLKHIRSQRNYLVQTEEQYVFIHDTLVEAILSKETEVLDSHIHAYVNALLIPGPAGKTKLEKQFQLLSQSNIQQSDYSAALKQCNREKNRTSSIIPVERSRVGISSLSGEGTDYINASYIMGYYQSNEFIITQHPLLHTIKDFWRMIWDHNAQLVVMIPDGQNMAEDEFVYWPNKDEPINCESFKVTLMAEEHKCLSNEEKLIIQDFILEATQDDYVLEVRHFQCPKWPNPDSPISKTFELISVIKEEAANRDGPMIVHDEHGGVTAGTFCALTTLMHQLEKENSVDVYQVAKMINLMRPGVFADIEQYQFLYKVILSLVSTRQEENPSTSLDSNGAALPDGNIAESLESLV", "UniProt P61810": "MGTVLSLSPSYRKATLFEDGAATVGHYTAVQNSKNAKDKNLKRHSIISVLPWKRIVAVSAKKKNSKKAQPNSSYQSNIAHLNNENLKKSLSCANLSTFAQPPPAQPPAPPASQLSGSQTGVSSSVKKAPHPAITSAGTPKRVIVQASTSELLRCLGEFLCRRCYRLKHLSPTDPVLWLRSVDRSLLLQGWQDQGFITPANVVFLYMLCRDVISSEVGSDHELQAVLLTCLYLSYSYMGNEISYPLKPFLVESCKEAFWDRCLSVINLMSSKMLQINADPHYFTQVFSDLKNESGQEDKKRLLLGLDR", "UniProt Q15078": "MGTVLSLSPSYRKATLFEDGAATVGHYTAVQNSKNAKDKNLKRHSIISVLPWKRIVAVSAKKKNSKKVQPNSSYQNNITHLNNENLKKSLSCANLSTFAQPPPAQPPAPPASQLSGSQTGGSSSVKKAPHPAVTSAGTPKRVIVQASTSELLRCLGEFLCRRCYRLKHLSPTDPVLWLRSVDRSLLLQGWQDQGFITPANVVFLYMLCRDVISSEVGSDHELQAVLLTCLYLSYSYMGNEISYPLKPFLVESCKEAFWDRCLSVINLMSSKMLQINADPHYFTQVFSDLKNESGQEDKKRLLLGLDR"}, "source": "paper PMC5897396", "key": {"[1]": {"target": "receptor protein tyrosine phosphatase beta/zeta (rat glioma C6 cells) (rat (endogenous in C6)) (UniProt Q62656)", "experiment": "co-IP; rat glioma C6 cells; p35 and CDK5 co-immunoprecipitated with RPTPβ/ζ (Supplementary Fig. S2)"}, "[2]": {"target": "receptor protein tyrosine phosphatase beta/zeta (human (endogenous in HUVEC)) (UniProt P23471)", "experiment": "proximity ligation; in situ PLA (Duolink) in fixed HUVEC, in the absence or presence of exogenous PTN (100 ng/ml) for 10 min"}, "[3]": {"target": "receptor protein tyrosine phosphatase beta/zeta (human (endogenous in HUVEC)) (UniProt P23471)", "experiment": "co-IP; HUVEC lysates (PBS, 1% Triton X-100, 0.1% SDS, 5 mM EDTA) immunoprecipitated with antibodies for RPTPβ/ζ, p35 or CDK5, 16 h at 4 °C, protein A/G agarose, Western blot; IgG as negative control; cells with or without PTN (100 ng/ml, 10 min), RPTPβ/ζ siRNA or peptide B3"}}, "note": "No constants are given. Whether binding was seen depends on the method and setting. Binding seen in cells or lysates may run through a third protein. Some results given as binding are weak or reduced against the parent protein; the word gives no strength.", "data": [{"substance": "p35 (rat glioma C6 cells) (from UniProt P61810 1-307)", "values": [{"measurement": "binding", "setting": "[1]", "result": "binds"}]}, {"substance": "CDK5 (rat glioma C6 cells) (from UniProt Q03114 1-292) (enzyme)", "values": [{"measurement": "binding", "setting": "[1]", "result": "binds"}]}, {"substance": "cyclin-dependent kinase 5 activator 1, p35 (from UniProt Q15078 1-307)", "values": [{"measurement": "binding", "setting": "[2]", "result": "binds"}, {"measurement": "binding", "setting": "[3]", "result": "binds"}]}, {"substance": "cyclin-dependent kinase 5 (from UniProt Q00535 1-292) (enzyme)", "values": [{"measurement": "binding", "setting": "[2]", "result": "binds"}, {"measurement": "binding", "setting": "[3]", "result": "binds"}]}]}
